Our source for the binding values is article PMC10245119.

Chains of the proteins cited; added tags and fusions are not shown.
UniProt Q924X7: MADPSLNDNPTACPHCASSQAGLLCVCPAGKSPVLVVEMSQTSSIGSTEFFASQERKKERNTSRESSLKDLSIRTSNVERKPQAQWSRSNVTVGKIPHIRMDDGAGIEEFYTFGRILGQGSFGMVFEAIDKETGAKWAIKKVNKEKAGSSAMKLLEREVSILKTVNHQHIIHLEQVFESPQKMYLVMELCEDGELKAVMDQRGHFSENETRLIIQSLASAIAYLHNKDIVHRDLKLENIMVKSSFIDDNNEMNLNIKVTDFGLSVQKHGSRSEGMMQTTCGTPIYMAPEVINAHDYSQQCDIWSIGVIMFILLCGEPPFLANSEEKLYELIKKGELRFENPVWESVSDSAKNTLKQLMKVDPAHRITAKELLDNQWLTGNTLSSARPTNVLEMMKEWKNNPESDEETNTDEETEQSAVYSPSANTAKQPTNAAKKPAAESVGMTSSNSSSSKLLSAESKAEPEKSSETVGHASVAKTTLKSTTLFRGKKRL

Results are given in words; binding and its absence hold for the method and conditions named. Binding seen in cells or lysates may run through a third protein. Some results given as binding are weak or reduced against the parent protein; the word gives no strength. Sequences can lack the tags named with a protein.

This test deals with T1, AKAP3-FLAG (A-kinase anchoring protein 3, FLAG-tagged) (UniProt O88987).
T1 sequence: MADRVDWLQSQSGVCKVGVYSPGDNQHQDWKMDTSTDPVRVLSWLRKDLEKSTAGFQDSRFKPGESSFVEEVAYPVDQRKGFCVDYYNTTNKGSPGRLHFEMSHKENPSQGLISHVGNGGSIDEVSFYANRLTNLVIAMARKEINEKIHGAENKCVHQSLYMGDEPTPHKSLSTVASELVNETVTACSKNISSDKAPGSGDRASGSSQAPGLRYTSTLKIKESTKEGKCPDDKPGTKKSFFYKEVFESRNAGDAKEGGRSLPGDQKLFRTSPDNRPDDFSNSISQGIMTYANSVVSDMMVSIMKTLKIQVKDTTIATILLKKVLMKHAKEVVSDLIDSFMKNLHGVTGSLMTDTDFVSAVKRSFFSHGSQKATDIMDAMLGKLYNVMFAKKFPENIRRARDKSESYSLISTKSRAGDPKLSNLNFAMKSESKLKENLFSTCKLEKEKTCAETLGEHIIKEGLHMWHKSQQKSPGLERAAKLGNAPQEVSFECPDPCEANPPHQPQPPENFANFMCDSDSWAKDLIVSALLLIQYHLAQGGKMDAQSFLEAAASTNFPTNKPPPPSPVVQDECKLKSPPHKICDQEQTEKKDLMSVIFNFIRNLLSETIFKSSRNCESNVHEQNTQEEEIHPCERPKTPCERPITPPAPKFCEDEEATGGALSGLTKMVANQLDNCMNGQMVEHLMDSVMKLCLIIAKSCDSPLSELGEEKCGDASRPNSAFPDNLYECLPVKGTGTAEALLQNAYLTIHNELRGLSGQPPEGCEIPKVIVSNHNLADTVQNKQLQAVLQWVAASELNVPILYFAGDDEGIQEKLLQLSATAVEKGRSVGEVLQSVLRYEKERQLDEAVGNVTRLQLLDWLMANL
As to the kind of experiment: co-IP; AKAP3-FLAG or FLAG-AKAP4-FLAG co-expressed with STK33-HA or STK33 KI-HA in HEK293T cells; lysis in Pierce IP lysis buffer; primary antibody overnight at 4 °C; protein A/G magnetic beads or G1 affinity resin; washes in PBST (0.5% Triton X-100); Western blot; reciprocal for STK33-HA. (In general: A western blot detects proteins with antibodies after separation by electrophoresis.)

With “STK33-HA (serine/threonine kinase 33, HA-tagged) (from UniProt Q924X7 1-491) (enzyme)”, the binding result was “binds”.
